# The supplement of paper PMC4635364
# Where a name gives a salt, the structure may show the parent alone. The list shows a part of the results. Repeats in this data set agree poorly, so a single value says little.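 Human fetal ventral-midbrain neural progenitor line ReNCell VM, differentiated without mitogens. Images stained for doublecortin (early neurons) or tyrosine hydroxylase (dopaminergic neurons) were scored by blinded raters against untreated wells (0 = no change). Repeats and both raters were averaged, and compounds averaging 2 or higher were picked as hits for retesting.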
# Experiments:
# [1] = system: ReNCell VM; assay: neuronal differentiation score (DCX+ cell fraction vs untreated, manual image score) (score (-3 to 3)); higher = more neuronal differentiation; conditions: 2 uM, 2 weeks
# [2] = system: ReNCell VM; assay: dopaminergic neuron differentiation score (TH+ cell fraction vs untreated, manual image score) (score (0 to 3)); higher = more TH+ dopaminergic neuron differentiation; conditions: 2 uM, 4 weeks, BDNF 10 ng/ml + GDNF 10 ng/ml
structure (smiles),measurement,setting,value
Nc1nc(=O)c2c([nH]1)NCC(CNc1ccc(C(=O)N[C@@H](CCC(=O)O)C(=O)O)cc1)=N2,neuronal differentiation score,[1]; library: Spectrum,inactive: 0
same,dopaminergic neuron differentiation score,[2]; library: Spectrum,inactive: 0
"CN1C2CCC1CC(NC(=O)c1nn(C)c3ccccc13)C2 (stereo unspecified) [LY-278,584 maleate]",neuronal differentiation score,[1]; library: LOPAC,inactive: 0
same,dopaminergic neuron differentiation score,[2]; library: LOPAC,inactive: 0
Cc1onc(-c2ccccc2)c1C(=O)N[C@@H]1C(=O)N2[C@@H]1SC(C)(C)[C@@H]2C(=O)O,neuronal differentiation score,[1]; library: Spectrum,inactive: 0
same,dopaminergic neuron differentiation score,[2]; library: Spectrum,inactive: 0
Cn1c([N+](=O)[O-])cnc1COC(N)=O,neuronal differentiation score,[1]; library: Spectrum,inactive: 0
same,dopaminergic neuron differentiation score,[2]; library: Spectrum,inactive: 0
CCOC(=O)C1=C(C)NC(C)=C(C(=O)OC)C1c1cccc([N+](=O)[O-])c1 (stereo unspecified),neuronal differentiation score,[1]; library: Spectrum,inactive: 0
same,dopaminergic neuron differentiation score,[2]; library: Spectrum,inactive: 0
CN(C)c1nc(N(C)C)nc(N(C)C)n1,neuronal differentiation score,[1]; library: Spectrum,inactive: -1
same,dopaminergic neuron differentiation score,[2]; library: Spectrum,inactive: 0
CCCCN(CCCC)CCCOC(=O)c1ccc(N)cc1 [Butacaine],neuronal differentiation score,[1]; library: Prestwick,inactive: 0
same,dopaminergic neuron differentiation score,[2]; library: Prestwick,inactive: 0
CCOC(=O)C1=C(C)NC(=S)NC1c1cccc(O)c1 (stereo unspecified) [Monastrol],neuronal differentiation score,[1]; library: Tocriscreen,inactive: 0
same,dopaminergic neuron differentiation score,[2]; library: Tocriscreen,inactive: 0
O=c1cc(-c2ccccc2)oc2cc(O)cc(O)c12 [Chrysin],neuronal differentiation score,[1]; library: Phytochemical,inactive: -1
same,dopaminergic neuron differentiation score,[2]; library: Phytochemical,inactive: 0
CC1(C)[C@@H](O[C@H]2O[C@H](C(=O)O)[C@@H](O)[C@H](O)[C@H]2O[C@@H]2O[C@H](C(=O)O)[C@@H](O)[C@H](O)[C@H]2O)CC[C@]2(C)[C@H]3C(=O)C=C4[C@@H]5C[C@@](C)(C(=O)O)CC[C@]5(C)CC[C@@]4(C)[C@]3(C)CC[C@@H]12,neuronal differentiation score,[1]; library: Spectrum,inactive: 0
same,dopaminergic neuron differentiation score,[2]; library: Spectrum,inactive: 0
COc1ccc(-c2ccc(=N)n(CCCC(=O)O)n2)cc1 [Gabazine bromide],neuronal differentiation score,[1]; library: Prestwick,inactive: 0
same,dopaminergic neuron differentiation score,[2]; library: Prestwick,inactive: 0
COc1cc(O)c2c(=O)c(OC)c(-c3ccc(OC)c(OC)c3)oc2c1,neuronal differentiation score,[1]; library: Spectrum,inactive: 0
same,dopaminergic neuron differentiation score,[2]; library: Spectrum,active: 3
C=CC1=C(C)/C(=C/c2[nH]c(Cc3[nH]c(/C=C4\NC(=O)C(C)=C4C=C)c(C)c3CCC(=O)O)c(CCC(=O)O)c2C)NC1=O,neuronal differentiation score,[1]; library: Spectrum,inactive: 0
same,dopaminergic neuron differentiation score,[2]; library: Spectrum,inactive: 0
Sc1nc2ccccc2s1,neuronal differentiation score,[1]; library: Spectrum,inactive: 0
same,dopaminergic neuron differentiation score,[2]; library: Spectrum,inactive: 0
CCN1CCN(C(=O)N[C@@H](C(=O)N[C@@H]2C(=O)N3[C@@H]2SC(C)(C)[C@@H]3C(=O)O)c2ccccc2)C(=O)C1=O,neuronal differentiation score,[1]; library: Spectrum,inactive: 0
same,dopaminergic neuron differentiation score,[2]; library: Spectrum,inactive: 0
Nc1cc[nH]c(=O)n1 [Cytosine],neuronal differentiation score,[1]; library: Phytochemical,inactive: 0
same,dopaminergic neuron differentiation score,[2]; library: Phytochemical,inactive: 0
COCCc1ccc(OCC(O)CNC(C)C)cc1 (stereo unspecified),neuronal differentiation score,[1]; library: Spectrum,inactive: 0
same,dopaminergic neuron differentiation score,[2]; library: Spectrum,inactive: 0
O=C(/C=C/c1ccccc1)c1ccc(O[C@@H]2O[C@H](CO)[C@@H](O)[C@H](O)[C@H]2O)cc1O,neuronal differentiation score,[1]; library: Spectrum,inactive: 0
same,dopaminergic neuron differentiation score,[2]; library: Spectrum,inactive: 0
COc1ccc(CC(C)NCC(O)c2ccc(O)c(NC=O)c2)cc1 (stereo unspecified) [Formoterol hemifumarate],neuronal differentiation score,[1]; library: Tocriscreen,inactive: 0
same,dopaminergic neuron differentiation score,[2]; library: Tocriscreen,inactive: 0
NC[C@@H]1O[C@@H](O[C@H]2[C@H](O)[C@@H](O[C@H]3O[C@H](CO)[C@@H](O)[C@H](N)[C@H]3O)[C@H](N)C[C@@H]2N)[C@@H](O)[C@H](O)[C@H]1O,neuronal differentiation score,[1]; library: Spectrum,inactive: 0
same,dopaminergic neuron differentiation score,[2]; library: Spectrum,inactive: 0
c1ccc2c(Cc3c[nH]c4ccccc34)c[nH]c2c1,neuronal differentiation score,[1]; library: Spectrum,inactive: 0
same,dopaminergic neuron differentiation score,[2]; library: Spectrum,inactive: 0
CCCCS(=N)(=O)CCC(N)C(=O)O [L-Buthionine-sulfoximine],neuronal differentiation score,[1]; library: LOPAC,inactive: 0
same,dopaminergic neuron differentiation score,[2]; library: LOPAC,inactive: 0
NS(=O)(=O)c1cc(Cl)c(Cl)c(S(N)(=O)=O)c1 [Dichlorphenamide],neuronal differentiation score,[1]; library: Prestwick,inactive: 0
same,dopaminergic neuron differentiation score,[2]; library: Prestwick,inactive: 0
COc1ccccc1OCC(O)CN1CCN(CC(=O)Nc2c(C)cccc2C)CC1 (stereo unspecified) [Ranolazine dihydrochloride],neuronal differentiation score,[1]; library: LOPAC,inactive: 0
same,dopaminergic neuron differentiation score,[2]; library: LOPAC,inactive: 0
CC1=C(/C=C/C(C)=C/C=C/C(C)=C/C(=O)Nc2ccc(O)cc2)C(C)(C)CCC1 [Fenretinide],neuronal differentiation score,[1]; library: Tocriscreen,inactive: 0
same,dopaminergic neuron differentiation score,[2]; library: Tocriscreen,inactive: 0
NC[C@H]1CC[C@H](C(=O)O)CC1 [Tranexamic acid],neuronal differentiation score,[1]; library: Prestwick,inactive: 0
same,dopaminergic neuron differentiation score,[2]; library: Prestwick,inactive: 0
C=C[C@@]1(C)CC(=O)[C@@]2(O)[C@](C)(O1)[C@@H](O)[C@@H](O)C1C(C)(C)CC[C@H](O)[C@@]12C (stereo partly specified),neuronal differentiation score,[1]; library: Spectrum,inactive: 0
same,dopaminergic neuron differentiation score,[2]; library: Spectrum,inactive: 0
CCC(=O)c1c(O)cc(O)cc1O,neuronal differentiation score,[1]; library: Spectrum,inactive: 0
same,dopaminergic neuron differentiation score,[2]; library: Spectrum,inactive: 0

# Reprinted at random: three entries already listed, in no set order.
structure (smiles),measurement,setting,value
CCCCS(=N)(=O)CCC(N)C(=O)O [L-Buthionine-sulfoximine],dopaminergic neuron differentiation score,[2]; library: LOPAC,inactive: 0
C=C[C@@]1(C)CC(=O)[C@@]2(O)[C@](C)(O1)[C@@H](O)[C@@H](O)C1C(C)(C)CC[C@H](O)[C@@]12C (stereo partly specified),neuronal differentiation score,[1]; library: Spectrum,inactive: 0
CCCCS(=N)(=O)CCC(N)C(=O)O [L-Buthionine-sulfoximine],neuronal differentiation score,[1]; library: LOPAC,inactive: 0
